The other results are listed elsewhere or left out.
These sequences were tested against T1, OsSMF1 (Oryza sativa, UniProt Q6ZLB0 1-436) (assay: protein-binding microarray (RPBM); PBS, 2% BSA, 51.3 ng/ul salmon testes DNA, 50 uM zinc acetate, 200 nM TF, 25 C, 1 h; high values mean tight binding). Details: protein: recombinant; tags: N-terminal polyhistidine and DsRed monomer fusion (pET32a); chain copies: 2; label: CyDye5-dUTP incorporated in the synthesized complementary strand; 3' TTTTT single-stranded linker to array surface; dsDNA, one strand shown.
T1 sequence: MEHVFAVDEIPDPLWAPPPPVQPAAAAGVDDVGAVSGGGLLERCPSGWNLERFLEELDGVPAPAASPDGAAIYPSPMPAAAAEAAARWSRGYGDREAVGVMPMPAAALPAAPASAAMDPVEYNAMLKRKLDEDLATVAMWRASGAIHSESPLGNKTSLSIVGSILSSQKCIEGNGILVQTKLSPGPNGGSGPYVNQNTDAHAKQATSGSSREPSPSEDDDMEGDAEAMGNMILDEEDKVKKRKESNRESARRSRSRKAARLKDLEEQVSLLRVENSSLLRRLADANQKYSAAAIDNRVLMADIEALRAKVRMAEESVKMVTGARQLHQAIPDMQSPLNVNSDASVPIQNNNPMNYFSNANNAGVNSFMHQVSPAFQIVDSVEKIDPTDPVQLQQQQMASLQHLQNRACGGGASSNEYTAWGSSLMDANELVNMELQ
Method in brief: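 Polyhistidine-tagged DsRed fusions of transcription factors, joined at the N-terminus, were expressed in E. coli BL21-CodonPlus and isolated on Ni–NTA. They were incubated at 200 nM for 1 h at 25 °C on a custom Agilent array, double-stranded and BSA-blocked, in PBS with 2% BSA, salmon testes DNA and 50 µM zinc acetate. The binding signal is per-feature fluorescence intensity (arbitrary units) read on an Axon 4000B scanner after washing.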

Going from “AGAACAAAACCATATGCCCTATATGTCATACACATGTAATCGGAGTCACCTAGTGCAG” to “TGCACAAGATGACCTGTACGTGTCGCTTGTTTGCCACGCCCGGAGTCACCTAGTGCAG”, the binding signal rises from 3620 fluorescence intensity (a.u.) to 9190 fluorescence intensity (a.u.).

Going from “CCCCACCCACCGCCTGCCAGCGCCACCCCACCTCGCGCCTCGGAGTCACCTAGTGCAG” to “AACCTTTGTAACTACTACCTCCATATTTTAATGTATGACGCGGAGTCACCTAGTGCAG”, the binding signal rises from 3180 fluorescence intensity (a.u.) to 3200 fluorescence intensity (a.u.).

Compared with “CGCATTTTACTAGGAATAAGTCCATTTGTCATCCCTCATCCGGAGTCACCTAGTGCAG”, “ACATGCTGATAAGTGGGCCCAAATATCTACCACGTAAGTGCGGAGTCACCTAGTGCAG” is higher in binding signal: 3180 fluorescence intensity (a.u.) for the first, 4710 fluorescence intensity (a.u.) for the second.

First: GCTCAACGCGCCGCCTCTGCGGTGTCAGCTGCTGGGCCCCCGGAGTCACCTAGTGCAG
Second: GATCACTTACTTTTAAGAGTCACGAATTGAACTTATTCCACGGAGTCACCTAGTGCAG
The binding signal of the first is higher: 7230 fluorescence intensity (a.u.) for the first, 3430 fluorescence intensity (a.u.) for the second.

First: TTATCTTGCTGATGGCATATATCCTTCTTGGGCCACATTTCGGAGTCACCTAGTGCAG
Second: CCTCCCGCTGATCGCGACCAGTCCACGTTGCCCATCTTCTCGGAGTCACCTAGTGCAG
The binding signal of the first is lower: 4140 fluorescence intensity (a.u.) for the first, 5440 fluorescence intensity (a.u.) for the second.

Compared with “GAAGTAGGACACTCAGCAGTCTCAGCTCTCACTCTCCGTCCGGAGTCACCTAGTGCAG”, “GAGAGTATTTTGACCTGTATACAGTCAGAGATGTACACTACGGAGTCACCTAGTGCAG” is higher in binding signal: 3170 fluorescence intensity (a.u.) for the first, 4420 fluorescence intensity (a.u.) for the second.

Going from “CTCTAGCTCTACGTGAACACCTTGGCCGTCATCAAATCCGCGGAGTCACCTAGTGCAG” to “CATCGTCCGCCGTGACACGCTGGCGGAGTCCGTGGTGCTACGGAGTCACCTAGTGCAG”, the binding signal rises from 3690 fluorescence intensity (a.u.) to 5010 fluorescence intensity (a.u.).

First: AACTGACGAACTGAATACCATCATATGTATTCTATAAGCGCGGAGTCACCTAGTGCAG
Second: CTCCTGGTCCGGGGCAGTTCAGTTTGGCCATACGTGGCGTCGGAGTCACCTAGTGCAG
The binding signal of the first is higher: 31400 fluorescence intensity (a.u.) for the first, 7600 fluorescence intensity (a.u.) for the second.

First: TGAGATGATGTGTGTTGTTCATTGTGCTTGTGTTGGAGATCGGAGTCACCTAGTGCAG
Second: TAGGCAAGCCGCAAGACGAAGAAGATGAACACGACAGTGCCGGAGTCACCTAGTGCAG
The binding signal of the first is higher: 4970 fluorescence intensity (a.u.) for the first, 3240 fluorescence intensity (a.u.) for the second.

First: AGGTGGTCTTCGCGCGCCACCGCTCCGGCCGCCGTCGCCCCGGAGTCACCTAGTGCAG
Second: ATTAACGTTTCACCCGCGCGCGCCCACCTGCCGCTGCAATCGGAGTCACCTAGTGCAG
The binding signal of the first is higher: 16900 fluorescence intensity (a.u.) for the first, 3300 fluorescence intensity (a.u.) for the second.

Compared with “GGTGGTGGTGGTGGGTTTTGCTATCTCTGCGTGCGTGTTCCGGAGTCACCTAGTGCAG”, “GACCTGTAGCCCATCACAATCAACTCGACAAGAACATCGACGGAGTCACCTAGTGCAG” is higher in binding signal: 4410 fluorescence intensity (a.u.) for the first, 5720 fluorescence intensity (a.u.) for the second.

Compared with “CCTCGATTCCTCTCCCTCCCAATCCACCTCCTCCTCCTCGCGGAGTCACCTAGTGCAG”, “ACCGACTGACTCATAATCTCTTCTCCTTGCTCTCTAGTTTCGGAGTCACCTAGTGCAG” is higher in binding signal: 3160 fluorescence intensity (a.u.) for the first, 6710 fluorescence intensity (a.u.) for the second.

Going from “GCTCGCTCGGCCACCTCGCCGCACCACCGTGTCACCCGCCCGGAGTCACCTAGTGCAG” to “GCTATGTCCCTTTTGCTTATACCTTGGGGCCACACCCTTTCGGAGTCACCTAGTGCAG”, the binding signal rises from 4490 fluorescence intensity (a.u.) to 19800 fluorescence intensity (a.u.).

Compared with “AGGGAGTAAGTAGCTAAATACCTACACTAATACTTAAATACGGAGTCACCTAGTGCAG”, “GTGGGAGTCGGATCAAGGGTGGAGAAAAGCGCAACGCAGCCGGAGTCACCTAGTGCAG” is higher in binding signal: 14300 fluorescence intensity (a.u.) for the first, 23400 fluorescence intensity (a.u.) for the second.

Going from “TAGTGACCTCACCGATAAAACCCCTGCCACGTCGACAGGACGGAGTCACCTAGTGCAG” to “CGCCCACGGCGTGTCCCCTGCGTGCGTGGCGCACCCGCACCGGAGTCACCTAGTGCAG”, the binding signal falls from 14400 fluorescence intensity (a.u.) to 7240 fluorescence intensity (a.u.).

Compared with “CACCGGCTCGTCCGTACCGGCCGTGGCCGCCATCGTCACGCGGAGTCACCTAGTGCAG”, “GTGAGCGGAGTGGGAGGGGAGGCGTCGGTGGCGTCAGGCCCGGAGTCACCTAGTGCAG” is higher in binding signal: 4180 fluorescence intensity (a.u.) for the first, 5160 fluorescence intensity (a.u.) for the second.

Going from “GGAATAGATAACACATCTGTCCTGCAAGCTACTGATGAGTCGGAGTCACCTAGTGCAG” to “TAGGTTAGTGGTGGCTGGGTCGTCACGTCATTGCATTGCACGGAGTCACCTAGTGCAG”, the binding signal falls from 3410 fluorescence intensity (a.u.) to 3270 fluorescence intensity (a.u.).

First: GCAATAATGAGCCAAACCAAGGCTTACCTGAGTCAACACACGGAGTCACCTAGTGCAG
Second: ATATTTTATATGTGCAAGTATGTGTCATGTGTGCATTTGTCGGAGTCACCTAGTGCAG
The binding signal of the first is lower: 4350 fluorescence intensity (a.u.) for the first, 4560 fluorescence intensity (a.u.) for the second.

First: ATCCCATGACATGTGGGTCTGATCAATGGTGACTGACCCACGGAGTCACCTAGTGCAG
Second: AAGATTTCTCTTATTTATTAGAGCGACACGTGACATCGCTCGGAGTCACCTAGTGCAG
The binding signal of the first is lower: 3360 fluorescence intensity (a.u.) for the first, 4260 fluorescence intensity (a.u.) for the second.

Going from “TGATTCTGTGAGTGCAGTCCTCGTCAGCAATATTATCTAACGGAGTCACCTAGTGCAG” to “AGTACTGGATGTGACACATCCTGGTACTACGAATCTGAACCGGAGTCACCTAGTGCAG”, the binding signal falls from 6270 fluorescence intensity (a.u.) to 3910 fluorescence intensity (a.u.).

Going from “GTCGCGGAGCCTCGCCGGGTCGACGGAGAGGATGCCGTGGCGGAGTCACCTAGTGCAG” to “GGCTTAATTGTTGATTAAACATCAGGCTCTTCTTGCATATCGGAGTCACCTAGTGCAG”, the binding signal rises from 3190 fluorescence intensity (a.u.) to 23800 fluorescence intensity (a.u.).
